Results published in patent US10272098B2, “Chelated drug delivery systems” (Drexel University, priority 2013, dated 2019).
Counter-ions that a name gives are not always drawn. For at least one compound, name, drawing or mass did not settle the structure.

Experiments:
[1] = test system: RAW264.7 murine macrophages; assay: LPS-stimulated nitrite (NO) production in macrophages; type: cell-based
primary rat neurons = assay: Neuroprotective activity against serum-induced neuron loss; type: cell-based; settings: fresh MH 40; released MH (first 24 hr) diluted to 80 and 40 μg/mL
[2] = cited from earlier work

## CN(C)c1ccc(O)c2c1C[C@H]1C[C@H]3[C@H](N(C)C)C(O)=C(C(N)=O)C(=O)[C@@]3(O)C(O)=C1C2=O [MH, Minocycline hydrochloride]
[1]; MH 0.5 μg/mL, released on day 45 from 16-trilayer unit LbL assembly
  NO production (nitrite) in LPS-treated macrophages: significantly reduced NO production
[1]; MH 0.5 μg/mL, released on last day of study (day 55 Ca^2+, day 71 Mg^2+)
  NO production (nitrite) in LPS-treated macrophages: significantly reduced NO production
[1]; MH 1 μg/mL, released on day 32
  NO production (nitrite) in LPS-treated macrophages: significantly reduced NO production
[1]; MH 40 or 1 μg/mL, released day 1, day 52 (Ca-based), day 62 (Mg-based)
  NO production (nitrite) in LPS-treated macrophages: significantly reduced NO production
Primary rat neurons
  serum-induced neuron loss (LDH assay, live/dead staining): inhibited serum-induced neuron loss
[2]
  dose levels at which MH is protective: 15 to 75 µg/mL
  level required for neuroprotection: 10 to 75 µg/mL
